Assay [1] concerns the target SENP3, endogenous (mouse (endogenous in TCMK1)) (UniProt Q9EP97). Description: co-IP; endogenous proteins in TCMK1 cell lysates, cells untreated or after hypoxia/reoxygenation (H/R: 3 h hypoxia, 24 h reoxygenation); lysates with primary antibody or IgG and protein A/G beads overnight at 4 °C, immunoblot. (A western blot detects proteins with antibodies after separation by electrophoresis.)

The chains behind the UniProt entries cited, without tags or fusion partners.
UniProt Q9EP97: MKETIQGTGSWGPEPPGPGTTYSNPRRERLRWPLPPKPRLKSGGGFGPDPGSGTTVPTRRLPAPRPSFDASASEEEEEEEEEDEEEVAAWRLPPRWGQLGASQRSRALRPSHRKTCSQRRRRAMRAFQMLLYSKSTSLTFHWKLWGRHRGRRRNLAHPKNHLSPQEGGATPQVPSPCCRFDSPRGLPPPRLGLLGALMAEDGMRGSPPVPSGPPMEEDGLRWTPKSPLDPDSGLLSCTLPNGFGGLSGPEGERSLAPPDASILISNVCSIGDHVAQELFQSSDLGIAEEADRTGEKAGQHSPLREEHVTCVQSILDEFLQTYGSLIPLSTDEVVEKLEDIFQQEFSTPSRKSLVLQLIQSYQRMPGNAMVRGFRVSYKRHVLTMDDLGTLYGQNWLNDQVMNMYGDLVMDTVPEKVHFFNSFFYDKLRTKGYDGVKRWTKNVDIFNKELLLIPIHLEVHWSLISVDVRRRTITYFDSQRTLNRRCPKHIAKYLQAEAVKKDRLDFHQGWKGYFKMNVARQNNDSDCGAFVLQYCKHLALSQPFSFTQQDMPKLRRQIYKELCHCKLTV

For another assay, the target named is SENP3-WT-HIS (UniProt Q9EP97). Description: co-IP; HEK-293T cells transfected for 48 h with vectors for FLAG-ASS1 (WT or 2KR), HA-UBC9, MYC-SUMO2/3 and His-SENP3; lysates with primary antibody or IgG and protein A/G beads overnight at 4 °C, immunoblot.

The values below come from paper PMC12827350.

Results are given in words; binding and its absence hold for the method and conditions named. In cells and extracts the contact can be indirect. Some entries that bind do so weakly or less than the wild type. For some assays here: Sequences can lack the tags named with a protein.

B1: Arginosuccinate synthase 1 (ASS1), endogenous (protein, UniProt P16460 1-412)
chain: MSSKGSVVLAYSGGLDTSCILVWLKEQGYDVIAYLANIGQKEDFEEARKKALKLGAKKVFIEDVSKEFVEEFIWPAVQSSALYEDRYLLGTSLARPCIARRQVEIAQREGAKYVSHGATGKGNDQVRFELTCYSLAPQIKVIAPWRMPEFYNRFKGRNDLMEYAKQHGIPIPVTPKSPWSMDENLMHISYEAGILENPKNQAPPGLYTKTQDPAKAPNSPDVLEIEFKKGVPVKVTNIKDGTTRTTSLELFMYLNEVAGKHGVGRIDIVENRFIGMKSRGIYETPAGTILYHAHLDIEAFTMDREVRKIKQGLGLKFAELVYTGFWHSPECEFVRHCIQKSQERVEGKVQVSVFKGQVYILGRESPLSLYNEELVSMNVQGDYEPIDATGFININSLRLKEYHRLQSKVTAK
Regarding B1, in assay [1], the binding entry is reported as “binds”.

B2: ASS1-WT-FLAG (protein, UniProt P16460 1-412)
chain: MSSKGSVVLAYSGGLDTSCILVWLKEQGYDVIAYLANIGQKEDFEEARKKALKLGAKKVFIEDVSKEFVEEFIWPAVQSSALYEDRYLLGTSLARPCIARRQVEIAQREGAKYVSHGATGKGNDQVRFELTCYSLAPQIKVIAPWRMPEFYNRFKGRNDLMEYAKQHGIPIPVTPKSPWSMDENLMHISYEAGILENPKNQAPPGLYTKTQDPAKAPNSPDVLEIEFKKGVPVKVTNIKDGTTRTTSLELFMYLNEVAGKHGVGRIDIVENRFIGMKSRGIYETPAGTILYHAHLDIEAFTMDREVRKIKQGLGLKFAELVYTGFWHSPECEFVRHCIQKSQERVEGKVQVSVFKGQVYILGRESPLSLYNEELVSMNVQGDYEPIDATGFININSLRLKEYHRLQSKVTAK
For the molecule B2, the binding result in the assay with SENP3-WT-HIS was “binds”.
